In patent US20250034601A1, “HETERODIMERIC BENZALDEHYDE SYNTHASE, METHODS OF PRODUCING, AND USES THEREOF” (Purdue Research Foundation, priority 2021, published 2025):

Key:
petunia flowers = assay: Labeling of VOCs after feeding deuterium labeled phenylalanine and benzoic acid to petunia flowers (GC-MS); type: in vivo, Petunia hybrida; conditions: percentage of labeling, volatiles collected 4 hours, means ± SE, n=3; for Labeling of VOCs after feeding ^2H8-Phenylalanine (%): 50 mM fed to excised limbs of 2-day-old petunia flowers for 2 hours; for Labeling of VOCs after feeding ^2H5-Benzoic acid (%): 100 mM fed to excised limbs of 2-day-old petunia flowers for 2 hours, n.d., not detected
[1] = system: pds-bsα-bsβ VIGS petunia flowers; assay: Emission of volatiles from pds-bsα-bsβ VIGS petunia flowers; type: in vivo, Petunia hybrida; conditions: 2-day-old VIGS flowers
Protocol: Petunia hybrida cv. Mitchell diploid (W115, Ball Seed Co., Oxford, Canada) plants were grown under standard greenhouse condition with a light period from 6:00 to 21:00 hour. To link the simultaneous downregulation of PhBSα and PhBSβ6 genes via virus induced gene silencing (VIGS) to the silencing of a marker gene, a previously generated pTRV2-PDS construct containing a 300 bp fragment of Nicotiana benthamiana Phytoene Desaturase (PDS) (CDS nucleotides 580˜879; SEQ ID NO: 11) was used (deposited with the National Center for Biotechnology Information (NCBI) GenBank and having the accession number DQ469932.1 (accepted Dec. 4, 2007)). […]
Petunia flower volatiles were collected by a closed-loop stripping method and analyzed by gas chromatography mass spectrometry (GC-MS) as described in Qian et al., Completion of the cytosolic post-chorismate phenylalanine biosynthetic pathway in plants, Nature Communications 10: 15 (2019), with minor modifications. […] The extracts were pooled together and concentrated to about 200 μL under a mild stream of nitrogen gas, and samples were analyzed on an Agilent 7890B-5977B gas chromatography mass spectrometry (GC-MS) system (Agilent Technologies, Inc., Santa Clara, CA) using an analytical method translated from an established method with the Agilent 6890N-5975B GC-MS system as previously described. […]

Structure (SMILES) | Labeling of VOCs after feeding ^2H8-Phenylalanine (%) (petunia flowers) | Labeling of VOCs after feeding ^2H5-Benzoic acid (%) (petunia flowers) | change of emission in pds-bsα-bsβ flowers relative to control [1] | increase of emission in pds-bsα-bsβ flowers relative to control ([1]; volatiles collected 20:00 to 21:00) [folds]
COc1cc(C=O)ccc1O [Vanillin (D4, 156), Vanillin] | 4.41 ± 1.05 |  |  | 
O=C(OCc1ccccc1)c1ccccc1 [Benzylbenzoate (D10, 222), Benzylbenzoate] | 2.88 ± 0.64 | 9.97 ± 3.53 |  | 
CC=Cc1ccc(O)c(OC)c1 [Isoeugenol (D5, 169), Isoeugenol] | 4.94 ± 0.94 |  | No statistically significant changes | 
O=C(OCc1ccccc1)c1ccccc1 [Benzylbenzoate (D5, 217), Benzylbenzoate] | 11.92 ± 1.90 | 24.33 ± 4.09 |  | 
OCc1ccccc1 [Benzylalcohol (D5, 113), Benzylalcohol] | 12.87 ± 3.36 | 12.37 ± 1.03 |  | 
O=C(OCc1ccccc1)c1ccccc1 [Benzoyl moiety of Benzylbenzoate (105), Benzylbenzoate] | 7.76 ± 1.12 | 22.88 ± 5.54 |  | 
O=C(OCCc1ccccc1)c1ccccc1 [phenylethylbenzoate] |  |  |  | 3.07
C=CCc1ccc(O)c(OC)c1 [Eugenol (D5, 169), Eugenol] | 5.79 ± 1.84 |  |  | 
O=Cc1ccccc1 [Benzaldehyde (D5, 111), Benzaldehyde] | 22.51 ± 5.45 | 23.03 ± 2.20 |  | 
O=CCc1ccccc1 [Phenylacetaldehyde (D7 + D8, 97 + 98), Phenylacetaldehyde] | 29.76 ± 8.26 |  |  | 
O=C(OCc1ccccc1)c1ccccc1 [Alcohol moiety of Benzylbenzoate (91), Benzylbenzoate] | 10.80 ± 2.31 | 21.86 ± 4.98 |  | 
